# PubChem BioAssay AID651640 (Broad Institute, 2012)
# The campaign covered roughly 350,000 compounds. About 6,000 (1.7%) were called active. This list was built around the results that the source calls inconclusive (neither active nor inactive); the mix of calls is not that of the screen. Rule as the data show it: active = CPE inhibition above about 20% (passing the limit was not always enough); inconclusive = no clear call, values can overlap the other calls; tested in BHK-21 cells.
# Assay: protection of cells from dengue 2 killing – plate reader, single concentration, primary screen (AID 651640);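 also: 0% = median of neutral control wells and 100% = median of positive control wells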
# Conditions: DENV2-infected cells, cytopathic effect rescue, at 9.99 µM, stronger effect = higher value
row,Structure (SMILES),CPE inhibition
1,Cc1noc(C)c1NC(=O)Nc1ccc2c(c1)CC(=O)N([C@H](C)CO)C[C@@H](C)[C@H](CN(C)C(=O)NC1CCCCC1)O2,inactive: -2.5%
2,CCOC(=O)C1(C(N)=O)OC1(c1ccc(Cl)cc1)c1ccccc1Cl (centres undefined),inactive: 2.54%
3,C[C@@H]1CCCCO[C@@H](CN(C)S(C)(=O)=O)[C@@H](C)CN([C@@H](C)CO)C(=O)c2cc(NC(=O)CCCN(C)C)ccc2O1,inconclusive: 29%
4,CCC(=O)N1CC2(C1)CN(Cc1cc(F)ccc1F)[C@@H](CO)c1[nH]c3cc(OC)ccc3c12,active: 47.6%
5,COc1ccccc1CNC(=O)COc1cc2c(c3oc(=O)cc(C)c13)CCC(C)(C)O2,inconclusive: 52.8%
6,C[C@@H]1CN([C@@H](C)CO)C(=O)c2cc(C#Cc3ccccc3)cnc2O[C@@H]1CN(C)C(=O)CN(C)C,inconclusive: 23.8%
7,COc1ccccc1N1CCN(C(=O)CCSCc2ccccc2F)CC1,inconclusive: 22%
8,C[C@@H]1CN([C@@H](C)CO)S(=O)(=O)c2ccc(C#CC(C)(C)O)cc2O[C@H]1CN(C)C(=O)CC1CC1,inactive: 5.6%
9,O=C(CSc1ccc2nnc(-c3cccnc3)n2n1)Nc1cccc(F)c1,inconclusive: 46.8%
10,CC(=O)N1c2ccc(S(=O)(=O)NCCC(=O)NCc3ccc(N(C)C)cc3)cc2CC1C (centres undefined),inactive: -9.45%
11,COc1ccc(/C=C/c2nnc(NC(C)=O)s2)cc1,inconclusive: 58.4%
12,CCn1c(CC(=O)Nc2ccccc2F)nnc1SCC(=O)Nc1nnc(C)s1,inconclusive: 37.2%
13,Cc1ccc(S(=O)(=O)NC[C@H]2O[C@@H](n3ccc(N)nc3=O)[C@H](O)[C@@H]2O)s1,inconclusive: 26.7%
14,Cc1ccc(N(C(=O)Nc2ccccc2)C2=NCCC2)cc1,inconclusive: 48.2%
15,CCOC(=O)C1=C[C@@H](C)N(S(=O)(=O)c2ccc(C)cc2)[C@H]1c1ccccc1,inactive: -2.51%
16,O=C(O)c1ccc(NC(=O)c2ccc(COc3ccccc3)o2)cc1,inconclusive: 25.1%
17,C[C@H]1CN([C@@H](C)CO)C(=O)c2cccc(NC(=O)c3ccc(-c4nccs4)cc3)c2O[C@@H]1CN(C)Cc1ccc(-c2ccccc2)cc1,active: 75.1%
18,CCc1cc(C(=O)N(CC)CC(=O)Nc2ccc(OC)cc2)sc1C,inconclusive: 47.8%
19,Cc1cccc(-c2ccc([C@@H]3[C@H]4CN(C(=O)c5cccnc5)CC(=O)N4[C@H]3CO)cc2)c1,inactive: 0.765%
20,C[C@H]1CN([C@@H](C)CO)C(=O)c2cc(NC(=O)Cn3cnnn3)ccc2O[C@@H]1CN(C)S(C)(=O)=O,inconclusive: 25.8%
21,CCOc1ccc(NC(=O)c2ccc(NC(=O)c3ccc(NC(N)=O)cc3)cc2)cc1,inconclusive: 21.3%
22,CC(C)NC(=O)Nc1ccc2c(c1)C(=O)N([C@@H](C)CO)C[C@H](C)[C@H](CN(C)Cc1ccc(C(F)(F)F)cc1)O2,inactive: 6.29%
23,C[C@H]1CCCCO[C@H](CN(C)C(=O)Nc2ccc3c(c2)OCO3)[C@@H](C)CN([C@@H](C)CO)C(=O)c2cc(NC(=O)NC3CCCCC3)ccc2O1,active: 85.4%
24,CCCCCCCCC#Cc1nc(C)ccc1OC,inactive: -2.09%
25,COc1ccc2c3c(n(C)c2c1)[C@@H](CO)N(Cc1ccncc1)CC31CN(C(=O)C2CCCC2)C1,inactive: -12.2%

row,Structure (SMILES),CPE inhibition
1,Fc1ccc(CCN2CCN=C2Nc2ccccc2)cc1,active: 124%
2,COc1ccc(NC(=O)c2cc3ccccc3cc2O)cc1,active: 46%
3,CCOc1cc2[nH]c(=O)n(Cc3ccc(C(=O)NCCCN4CCC(C)CC4)cc3)c(=O)c2cc1OCC,inactive: 1.24%
4,Cc1cccc(NC(=O)c2cc(=O)n(Cc3ccccc3)c(=O)[nH]2)c1,inconclusive: 51.4%
5,C[C@H](CO)N1C[C@H](C)[C@@H](CN(C)C(=O)Nc2ccc(F)cc2)Oc2c(NC(=O)c3cnccn3)cccc2C1=O,inconclusive: 28.7%
6,C[C@H]1CN([C@@H](C)CO)C(=O)c2cccc(NC(=O)Nc3ccccc3)c2O[C@@H]1CN(C)CC1CC1,inactive: 4.25%
7,CCCNC(=O)Nc1ccc2c(c1)C(=O)N(C)[C@@H]1CC[C@@H](CC(=O)NCc3ccccc3)O[C@@H]1CO2,active: 56%
8,CC(C)NC(=O)Nc1ccc2c(c1)CC(=O)N([C@@H](C)CO)C[C@@H](C)[C@@H](CN(C)Cc1ccc(C(=O)O)cc1)O2,inconclusive: 23.1%
9,O=C(Nc1ccc(F)cc1)C(c1ccccc1OC(F)(F)F)N1CCN(c2cccc(C(F)(F)F)n2)CC1 (centres undefined),inconclusive: 47.4%
10,NC(=O)Nc1ccc(C(=O)OCC(=O)c2c[nH]c3ccccc23)cc1,inconclusive: 24.6%
11,O=C(CCNC(=O)c1ccc(Cl)cc1)Nc1ccccc1Cl,inconclusive: 47.3%
12,COC(=O)[C@@]12C[C@@H](CC(=O)NCc3cccc4ccccc34)C(=O)N(Cc3ccc4c(c3)OCO4)C1=CCC(C)(C)C2,inconclusive: 40.2%
13,Cc1cc(C)c2nc(SCC(=O)Nc3cc(C)on3)c(C)cc2c1,inconclusive: 22.1%
14,O=C(CN1C(=O)c2ccccc2S1(=O)=O)c1ccccc1Cl,inactive: -3.85%
15,CCOc1cc(N2CCOCC2)c(OCC)cc1NC(=O)COC(=O)c1ccc(Cl)cc1N,inconclusive: 40%
16,CCOC(=O)C1=C(COC(=O)c2cccc(Cl)c2)NC(=O)NC1C (centres undefined),inconclusive: 25.1%
17,CC1CCCC(C)N1C(=O)CSc1nc2c(c(=O)n(C)c(=O)n2C)n1C (centres undefined),inconclusive: 25.9%
18,CC(C)NC(=O)N(C)C[C@@H]1Oc2ccc(NS(=O)(=O)c3cn(C)cn3)cc2C(=O)N([C@H](C)CO)C[C@@H]1C,inconclusive: 25.2%
19,CNC(=O)C[C@H]1CC[C@H]2[C@H](COc3ccc(NC(=O)NCc4ccccc4)cc3C(=O)N2C)O1,inconclusive: 60.3%
20,COc1ccc(NC(=O)N(C)C[C@H]2Oc3ccc(NC(=O)NC(C)C)cc3C(=O)N([C@H](C)CO)C[C@H]2C)cc1,active: 34.4%
21,CCOC(=O)C(C)Sc1nc2c(cnn2-c2ccc(F)cc2)c(=O)[nH]1 (centres undefined),inconclusive: 30.7%
22,CCOc1ccc(NC(=O)COC(=O)CSCC(=O)Nc2ccc(C)cc2C)cc1,inconclusive: 24.2%
23,O=C(COc1ccccc1)Nc1nc(-c2ccncc2)cs1,inconclusive: 54%
24,O=C(Nc1ncccc1O)c1cccc(S(=O)(=O)NCc2ccccc2)c1,inconclusive: 22.3%
25,CCN1CCN(c2ccccc2NC(=O)c2ccc(-n3cccn3)cc2)CC1,inconclusive: 36%

# Six entries from above, with tabs.
row	Structure (SMILES)	CPE inhibition
1	Fc1ccc(CCN2CCN=C2Nc2ccccc2)cc1	active: 124%
5	C[C@H](CO)N1C[C@H](C)[C@@H](CN(C)C(=O)Nc2ccc(F)cc2)Oc2c(NC(=O)c3cnccn3)cccc2C1=O	inconclusive: 28.7%
15	CCOc1cc(N2CCOCC2)c(OCC)cc1NC(=O)COC(=O)c1ccc(Cl)cc1N	inconclusive: 40%
16	CCOC(=O)C1=C(COC(=O)c2cccc(Cl)c2)NC(=O)NC1C (centres undefined)	inconclusive: 25.1%
19	CNC(=O)C[C@H]1CC[C@H]2[C@H](COc3ccc(NC(=O)NCc4ccccc4)cc3C(=O)N2C)O1	inconclusive: 60.3%
21	CCOC(=O)C(C)Sc1nc2c(cnn2-c2ccc(F)cc2)c(=O)[nH]1 (centres undefined)	inconclusive: 30.7%

# (listing goes on)

row,Structure (SMILES),CPE inhibition
1,CC(=O)N(C)C[C@H]1Oc2ncc(C#Cc3ccccc3)cc2C(=O)N([C@H](C)CO)C[C@@H]1C,inactive: 11.7%
2,C[C@H](CO)N1C[C@H](C)[C@@H](CN(C)C(=O)Nc2ccccc2)Oc2cc(C#CC3(O)CCCC3)ccc2S1(=O)=O,inconclusive: 40.9%
3,CCOC(=O)c1cc(-c2ccc(Cl)cc2)nc2c1c(=O)[nH]c(=O)n2CCOC,inconclusive: 21.3%
4,COCC(=O)N(C[C@H]1N[C@@H](CO)[C@@H]1c1ccc(C2=CCCC2)cc1)C(C)C,inconclusive: 78.1%
5,COc1ccc(-c2[nH]c(-c3ccccc3)nc2SCC(=O)NC2CCCC2)cc1,inconclusive: 50.6%
6,O=C(NCc1ccccc1)c1ccccc1,active: 20.4%
7,CC(=O)NC[C@H]1[C@@H](c2ccc(-c3cccnc3)cc2)[C@H](CO)N1C(=O)C1CCC1,inconclusive: 20%
8,COc1ccccc1C(O)(C(=O)NNc1cccc(C)c1)c1ccccc1OC,inactive: 1.18%
9,CCNC(=O)Nc1ccc2c(c1)C(=O)N(C)[C@H]1CC[C@H](CC(=O)NCc3cccc(F)c3)O[C@@H]1CO2,inconclusive: 39.4%
10,Cc1cc(NC(=O)CSc2nnc(NCc3ccco3)s2)no1,inconclusive: 29.3%
11,CCCNC(=O)N1CC2(CN(C(=O)COC)C2)c2c(n(C)c3cc(OC)ccc23)[C@H]1CO,inactive: -3.01%
12,C[C@@H]1CCCCO[C@H](CN(C)C(=O)c2ccccc2)[C@H](C)CN([C@@H](C)CO)C(=O)c2cc(NC(=O)Cc3ccccc3)ccc2O1,inconclusive: 20.9%
13,CC(C)COc1ccc(C(=O)NC(Cc2c[nH]c3ccccc23)C(=O)NN)cc1 (centres undefined),inconclusive: 21.9%
14,O=C(Nc1cc(F)ccc1F)N[C@@H]1CC[C@H](CCNC(=O)c2cnccn2)O[C@@H]1CO,active: 34.4%
15,C[C@H](CO)N1C[C@H](C)[C@@H](CN(C)C)Oc2ccc(NC(=O)NC3CCCCC3)cc2CC1=O,inactive: 12.4%
16,Cc1cccc(C)c1NC(=O)CSc1ncnc2[nH]ncc12,inconclusive: 23.6%
17,Cc1ccc(CC(=O)N2CCN(S(=O)(=O)c3ccccc3)CC2)cc1C,inconclusive: 75.8%
18,C[C@@H]1CN([C@@H](C)CO)C(=O)c2cc(Br)cnc2O[C@@H]1CN(C)C(=O)Nc1ccc(F)cc1,inconclusive: 30.2%
19,CCOC(=O)CCC(=O)N1CCNC(=O)C1,inconclusive: 51%
20,Cc1cc(C(=O)Nc2cccc3c2O[C@H](CN(C)S(=O)(=O)c2c(C)noc2C)[C@H](C)CN([C@@H](C)CO)C3=O)n(C)n1,inactive: -5.15%
21,O=C(NC1CCCC1)C(C1CC1)n1c(-c2ccccn2)nc2ccccc21 (centres undefined),inactive: -15%
22,Cc1cc(C)cc(NC(=O)Nc2cccc(S(N)(=O)=O)c2)c1,inconclusive: 42.8%
23,CCc1cccc(C)c1NC(=O)COC(=O)c1cc([N+](=O)[O-])ccc1N1CCOCC1,inconclusive: 38.3%
24,CCCNC(=O)[C@@H]1[C@@H](CO)[C@@H]2Cn3c(ccc(C4=CCCC4)c3=O)[C@@H]2N1Cc1ccccc1,inconclusive: 26.3%
